From US20210290727A1 (UNIVERSITY OF MARYLAND BALTIMORE, published 2021)
Where a chain is given by its changes, count along the chain named. No constants are given. Whether binding was seen depends on the method and setting. For some assays here: Binding seen in cells or lysates may run through a third protein. Some results given as binding are weak or reduced against the parent protein; the word gives no strength.

By UniProt entry, the sequences of proteins in these tests, tags left out.
UniProt Q8N122: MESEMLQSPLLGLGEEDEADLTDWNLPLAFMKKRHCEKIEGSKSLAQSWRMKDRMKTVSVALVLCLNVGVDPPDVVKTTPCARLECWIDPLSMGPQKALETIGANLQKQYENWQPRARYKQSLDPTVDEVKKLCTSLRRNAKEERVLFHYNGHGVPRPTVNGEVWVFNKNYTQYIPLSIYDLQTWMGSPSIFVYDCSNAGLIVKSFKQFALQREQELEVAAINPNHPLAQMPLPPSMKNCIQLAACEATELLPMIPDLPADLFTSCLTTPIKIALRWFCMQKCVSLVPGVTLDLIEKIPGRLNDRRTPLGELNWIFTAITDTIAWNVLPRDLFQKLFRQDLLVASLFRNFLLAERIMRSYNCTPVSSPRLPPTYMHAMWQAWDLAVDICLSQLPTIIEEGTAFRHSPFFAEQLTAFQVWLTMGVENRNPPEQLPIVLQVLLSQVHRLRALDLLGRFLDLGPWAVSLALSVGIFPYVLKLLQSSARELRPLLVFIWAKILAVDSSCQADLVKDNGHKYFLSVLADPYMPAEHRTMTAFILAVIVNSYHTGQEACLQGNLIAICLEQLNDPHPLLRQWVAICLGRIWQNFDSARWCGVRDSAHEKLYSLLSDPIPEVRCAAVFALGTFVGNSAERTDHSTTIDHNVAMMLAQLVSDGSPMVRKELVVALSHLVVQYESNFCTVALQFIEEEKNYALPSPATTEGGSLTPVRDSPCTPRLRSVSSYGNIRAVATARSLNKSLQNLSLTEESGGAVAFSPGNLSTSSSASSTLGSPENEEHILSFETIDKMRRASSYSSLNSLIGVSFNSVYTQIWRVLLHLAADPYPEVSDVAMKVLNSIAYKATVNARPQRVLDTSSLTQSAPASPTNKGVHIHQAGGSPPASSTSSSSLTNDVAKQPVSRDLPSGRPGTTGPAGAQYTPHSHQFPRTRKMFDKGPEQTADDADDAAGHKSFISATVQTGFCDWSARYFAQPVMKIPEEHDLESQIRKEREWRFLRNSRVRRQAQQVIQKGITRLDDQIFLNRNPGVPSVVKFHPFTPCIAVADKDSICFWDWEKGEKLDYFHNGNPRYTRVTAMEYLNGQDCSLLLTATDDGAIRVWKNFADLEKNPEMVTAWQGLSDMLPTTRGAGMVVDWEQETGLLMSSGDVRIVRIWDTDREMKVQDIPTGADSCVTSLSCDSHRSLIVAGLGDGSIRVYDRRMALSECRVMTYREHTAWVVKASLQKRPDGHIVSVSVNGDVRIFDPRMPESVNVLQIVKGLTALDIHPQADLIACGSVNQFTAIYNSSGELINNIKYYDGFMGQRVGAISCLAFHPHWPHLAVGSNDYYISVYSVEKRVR

What was measured:
[1] = molecular target: HA-mCherry-Raptor (UniProt Q8N122); experiment: co-IP from HEK293 lysates, immunoblot
[2] = molecular target: HA-GST-Rheb (WT) loaded with GDP (UniProt Q15382); experiment: summary sentence of Example 1 (pull-down with nucleotide-loaded Rheb)
[3] = molecular target: HA-GST-Rheb (WT) loaded with GDP (UniProt Q15382); experiment: pull-down: HA-GST-Rheb on glutathione beads loaded with GDP, tdTomato-CIB2 lysate added, immunoblot
[4] = molecular target: HA-GST-Rheb (WT) loaded with GDP (UniProt Q15382); experiment: pull-down: HA-GST-Rheb on GST beads loaded with GDP, incubated with tdTomato-CIB2 lysate, immunoblot
[5] = molecular target: HA-GST-Rheb (WT) loaded with GTPγS (UniProt Q15382); experiment: pull-down: HA-GST-Rheb on glutathione beads loaded with GTPγS, tdTomato-CIB2 lysate added, immunoblot
[6] = molecular target: HA-GST-Rheb (WT) loaded with GTPγS (UniProt Q15382); experiment: pull-down: HA-GST-Rheb on GST beads loaded with GTPγS, incubated with tdTomato-CIB2 lysate, immunoblot
[7] = molecular target: HA-mCherry-Raptor (UniProt Q8N122); experiment: summary sentence of Example 1 (NanoSPD and co-IP)
[8] = molecular target: HA-mCherry-Raptor (UniProt Q8N122); experiment: NanoSPD (nanoTRAP) filopodia co-accumulation in COS-7 cells

Measured: binding

B1: tdTomato-CIB2 (protein, not shown: large carriers)
chain: MGNKQTIFTEEQLDNYQDCTFFNKKDILKLHARFYELAPNLVPMDYRKSPIVHVPMSLIIQMPELRENPFKERIVEAFSEDGEGNLTFNDFVDMFSVLCESAPRELKANYAFKIYDFNTDNFICKEDLEMTLARLTKSELEEDEVVLVCDKVIEEADLDGDGKLGFADFEDMIAKAPDFLSTFHIRI
not listed: [7] | [8]
binds: all other assays above

B2: CIB2-eGFP (other)
chain: B1 chain with A32S, E76A, M130L, E141D, D143E
notes: Expressed in COS-7 cells as bait of the NanoSPD (nanoTRAP) assay; also called hCIB2-eGFP; GFP-hCIB2; not shown: eGFP tag
binds: [7] | [8]
